According to patent US20020123082A1:
Results are given in words; binding and its absence hold for the method and conditions named. For part of these data: In cells and extracts the contact can be indirect. Some entries that bind do so weakly or less than the wild type. For part of these data: Tags and fused reporters may be left off the sequences shown. One block for each binder: values may come before it.

Chains of the proteins cited; added tags and fusions are not shown. Lines headed by an entry give the natural chain unless they say otherwise; changes in a name come on top. Residues count along the entry.
UniProt P63208: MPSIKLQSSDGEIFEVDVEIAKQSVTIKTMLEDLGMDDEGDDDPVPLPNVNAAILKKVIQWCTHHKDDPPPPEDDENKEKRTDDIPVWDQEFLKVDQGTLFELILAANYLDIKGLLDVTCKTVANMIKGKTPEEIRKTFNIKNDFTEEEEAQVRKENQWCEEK
human Skp1 (endogenous, HeLa cells): residues 2-163 of P63208
UniProt P04386: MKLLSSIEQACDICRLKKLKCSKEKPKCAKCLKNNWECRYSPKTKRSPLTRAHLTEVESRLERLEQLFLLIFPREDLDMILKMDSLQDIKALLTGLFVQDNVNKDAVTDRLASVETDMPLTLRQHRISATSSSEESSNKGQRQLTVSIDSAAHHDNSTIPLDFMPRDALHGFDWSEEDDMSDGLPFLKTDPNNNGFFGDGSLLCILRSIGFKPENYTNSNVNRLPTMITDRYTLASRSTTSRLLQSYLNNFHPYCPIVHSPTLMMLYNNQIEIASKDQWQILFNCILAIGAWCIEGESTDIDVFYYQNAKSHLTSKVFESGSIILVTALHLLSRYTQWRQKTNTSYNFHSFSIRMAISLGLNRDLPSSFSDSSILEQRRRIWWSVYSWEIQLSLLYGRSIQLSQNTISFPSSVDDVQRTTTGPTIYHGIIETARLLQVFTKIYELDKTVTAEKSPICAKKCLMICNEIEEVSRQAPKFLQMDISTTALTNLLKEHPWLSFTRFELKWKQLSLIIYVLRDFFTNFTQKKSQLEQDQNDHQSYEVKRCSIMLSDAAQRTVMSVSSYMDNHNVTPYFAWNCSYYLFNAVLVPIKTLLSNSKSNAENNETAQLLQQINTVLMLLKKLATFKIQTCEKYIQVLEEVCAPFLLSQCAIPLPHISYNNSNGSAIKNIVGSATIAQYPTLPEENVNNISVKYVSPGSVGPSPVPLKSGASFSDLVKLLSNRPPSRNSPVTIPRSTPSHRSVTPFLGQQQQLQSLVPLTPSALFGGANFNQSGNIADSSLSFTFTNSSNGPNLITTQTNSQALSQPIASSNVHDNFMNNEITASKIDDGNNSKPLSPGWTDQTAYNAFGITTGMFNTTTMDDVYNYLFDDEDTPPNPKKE

Key:
[1] = molecular target: His-tagged Skp1 (human) (UniProt P63208); experiment: pull-down of in vitro translated 35S-FBP on His-Skp1 Nickel-agarose beads, autoradiography
[2] = molecular target: Gal4 DB-Skp1 fusion protein (yeast; human) (UniProt P04386+P63208); experiment: yeast two-hybrid, Gal4 DB-Skp1 bait, Gal4 AD T-cell cDNA library prey, three reporter assays
[3] = molecular target: human Skp1 (endogenous, HeLa cells) (human) (UniProt P63208); experiment: anti-Flag co-immunoprecipitation from transfected HeLa cells, immunoblot
[4] = molecular target: human Skp1 (endogenous, HeLa cells) (human) (UniProt P63208); experiment: anti-Flag co-immunoprecipitation from transfected HeLa cells, immunoblot; endogenous partner

B3: Flag-tagged FBP3a (protein, not shown: small tags and cut ends)
chain: MKRGGRDSDRNSSEEGTAEKSKKLRTTNEHSQTCDWGNLLQDIILQVFKYLPLLDRAHASQVCRNWNQVFHMPDLWRCFEFELNQPATSYLKATHPELIKQIIKRHSNHLQYVSFKVDSSKESAEAACDILSQLVNCSLKTLGLISTARPSFMDLPKSHFISALTVVFVNSKSLSSLKIDDTPVDDPSLKVLVANNSDTLKLLKMSSCPHVSPAGILCVADQCHGLRELALNYHLLSDELLLALSSEKHVRLEHLRIDVVSENPGQTHFHTIQKSSWDAFIRHSPKVNLVMYFFLYEEEFDPFFRYEIPATHLYFGRSVSKDVLGRVGMTCPRLVELVVCANGLRPLDEELIRIAERCKNLSAIGLGECEVSCSAFVEFVKMCGGRLSQLSIMEEVLIPDQKYSLEQIHWEVSKHLGRVWFPDMMPTW
binding [3]: binds
binding [4]: binds

B4: Flag-tagged FBP2 (protein, not shown: small tags and cut ends)
chain: MERKDFETWLDNISVTFLSLTDLQKNETLDHLISLSGAVQLRHLSNNLETLLKRDFLKLLPLELSFYLLKWLDPQTLLTCCLVSKQWNKVISACTEVWQTACKNLGWQIDDSVQDALHWKKVYLKAILRMKQLEDHEAFETSSLIGHSARVYALYYKDGLLCTGSDDLSAKLWDVSTGQCVYGIQTHTCAAVKFDEQKLVTGSFDNTVACWEWSSGARTQHFRGHTGAVFSVDYNDELDILVSGSADFTVKVWALSAGTCLNTLTGHTEWVTKVVLQKCKVKSLLHSPGDYILLSADKYEIKIWPIGREINCKCLKTLSVSEDRSICLQPRLHFDGKYIVCSSALGLYQWDFASYDILRVIKTPEIANLALLGFGDIFALLFDNRYLYIMDLRTESLISRWPLPEYRESKRGSSFLAGEHPG
binding [3]: binds
binding [4]: binds

B5: human F-box protein FBP2 (protein)
chain: B4 chain
binding [1]: binds
binding [2]: binds

The next lines start with the values.

binding [1]: binds
B1: human F-box protein FBP5 (protein)
chain: MSRRPCSCALRPPRCSCSASPSAVTAAGRPRPSDSCKEESSTLSVKMKCDFNCNHVHSGLKLVKPDDIGRLVSYTPAYLEGSCKDCIKDYERLSCIGSPIVSPRIVQLETESKRLHNKENQHVQQTLNSTNEIEALETSRLYEDSGYSSFSLQSGLSEHEEGSLLEENFGDSLQSCLLQIQSPDQYPNKNLLPVLHFEKVVCSTLKKNAKRNPKVDREMLKEIIARGNFRLQNIIGRKMGLECVDILSELFRRGLRHVLATILAQLSDMDLINVSKVSTTWKKILEDDKGAFQLYSKAIQRVTENNNKFSPHASTREYVMFRTPLASVQKSAAQTSLKKDAQTKLSNQGDQKGSTYSRHNEFSEVAKTLKKNESLKACIRCNSPAKYDCYLQRATCKREGCGFDYCTKCLCNYHTTKDCSDGKLLKASCKIGPLPGTKKSKKNLRRL

binding [1]: binds
binding [2]: binds
B2: human F-box protein FBP3a (protein)
chain: B3 chain
